Values from PubChem BioAssay AID652243 (Drosophila RNAi Screening Center, 2013)
Test: 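Fly genes required for human androgen receptor driven transcription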 (primary screen). System: Drosophila S2R+ cells. Knock-down reagent: long dsRNA against Drosophila genes. Duration: 72 h (48 h, then 24 h hormone). Conditions: synthetic androgen R1881 at 10 nM for 24 h. Detection: 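Firefly light from an androgen-responsive reporter and Renilla control light per well, raw and unnormalised, for each of two replicates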. Scale: firefly reporter light: higher = more light from androgen-responsive reporter; Renilla control light: higher = more constitutive control signal (cell number, transfection). Active means: 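Across duplicate plates, a knock-down whose log firefly/Renilla ratio shifted a set fold down or up from the GFP/LacZ control mean was a hit; the downward cut appears as both 1.5 and 3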. Calls: active = hit: reporter lowered or raised; inactive = no hit.
In all, the deposit lists about 24,000 reagents; shown is an unselected part of those that have a named target and a result. In the full data, 246 (1%) got an active call. 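Plates not normalised; calls are printed but the firefly/Renilla ratio behind them is not deposited; fold cut for lowering reported inconsistently.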 The raw values are shown without normalisation. No sequences are given here. Not stated in the record: the amount of reagent.

| target gene | amplicon | firefly reporter light, replicate 1 | firefly reporter light, replicate 2 | Renilla control light, replicate 1 | Renilla control light, replicate 2 | Call |
| --- | --- | --- | --- | --- | --- | --- |
| htk | DRSC20029 | 2.02e5 | 64969 | 1.32e6 | 5.11e5 | active |
| htk | DRSC20031 | 54725 | 1.04e5 | 7.15e5 | 9.89e5 | inactive |
| htk | DRSC27508 | 2.00e5 | 2.04e5 | 7.94e5 | 1.12e6 | active |
| l(3)05822 | DRSC16202 | 1.04e5 | 1.23e5 | 1.05e6 | 1.06e6 | inactive |
| l(3)05822 | DRSC24720 | 4.20e5 | 2.63e5 | 4.45e5 | 5.18e5 | inactive |
| CG15742 | DRSC19708 | 65477 | 99992 | 7.50e5 | 7.87e5 | inactive |
| CG15742 | DRSC28195 | 6.41e5 | 5.30e5 | 1.88e6 | 1.51e6 | inactive |
| Tsp42Eo | DRSC06184 | 3.34e5 | 3.29e5 | 2.01e6 | 1.79e6 | inactive |
| CG3330 | DRSC15477 | 84814 | 1.11e5 | 6.51e5 | 7.22e5 | inactive |
| Past1 | DRSC16784 | 42962 | 84259 | 1.26e6 | 1.43e6 | inactive |
| CG18266 | DRSC02659 | 3.22e5 | 6.24e5 | 9.78e5 | 1.17e6 | inactive |
| Sox21a | DRSC10819 | 1.47e5 | 1.54e5 | 1.11e6 | 1.31e6 | inactive |
| Sox21a | DRSC25435 | 3.69e5 | 3.00e5 | 6.02e5 | 5.10e5 | inactive |
| Orc1 | DRSC07496 | 4.69e5 | 4.80e5 | 1.65e6 | 3.22e6 | inactive |
| msd1 | DRSC08383 | 86013 | 1.34e5 | 1.56e6 | 1.60e6 | inactive |
| CG15083 | DRSC06514 | 1.17e5 | 1.34e5 | 1.58e6 | 1.85e6 | inactive |
| CG1227 | DRSC12534 | 41286 | 42743 | 4.71e5 | 3.03e5 | inactive |
| CG1227 | DRSC25952 | 3.58e5 | 4.40e5 | 8.73e5 | 8.66e5 | inactive |
| CG17110 | DRSC15173 | 1.87e5 | 2.26e5 | 2.74e6 | 2.63e6 | inactive |
| kek4 | DRSC03220 | 6.58e5 | 6.90e5 | 1.96e6 | 2.00e6 | inactive |
| CG11263 | DRSC09832 | 1.34e5 | 1.73e5 | 1.40e6 | 1.32e6 | inactive |
| CG7728 | DRSC10907 | 52108 | 60166 | 4.88e5 | 3.40e5 | inactive |
| CG7728 | DRSC28948 | 9.73e5 | 7.85e5 | 2.01e6 | 1.59e6 | inactive |
| CG6059 | DRSC15958 | 75459 | 69276 | 5.09e5 | 5.38e5 | inactive |
| CG13039 | DRSC09920 | 2.86e5 | 2.98e5 | 2.82e6 | 2.79e6 | inactive |
| DCTN3-p24 | DRSC04592 | 6.94e5 | 5.97e5 | 6.58e5 | 9.11e5 | inactive |
| DCTN3-p24 | DRSC29156 | 4.62e5 | 4.73e5 | 1.24e6 | 1.17e6 | inactive |
| Rpn6 | DRSC07541 | 7.30e5 | 1.14e6 | 1.04e6 | 1.16e6 | inactive |
| ppk17 | DRSC02252 | 1.68e5 | 1.35e5 | 2.07e6 | 1.81e6 | inactive |
| CG6724 | DRSC02983 | 2.09e5 | 2.65e5 | 1.75e6 | 1.80e6 | inactive |
| pit | DRSC17025 | 2.91e5 | 2.69e5 | 3.81e6 | 3.34e6 | inactive |
| pit | DRSC22798 | 4.00e5 | 5.87e5 | 8.58e5 | 1.06e6 | inactive |
| pit | DRSC28254 | 3.66e5 | 6.10e5 | 9.10e5 | 1.93e6 | inactive |
| CG14778 | DRSC17953 | 3.23e5 | 2.77e5 | 4.83e6 | 3.95e6 | inactive |
| dare | DRSC07602 | 1.04e6 | 1.45e6 | 7.72e5 | 1.16e6 | inactive |
| MICAL-like | DRSC09829 | 1.12e6 | 9.02e5 | 1.65e6 | 1.59e6 | inactive |
| CG10887 | DRSC14277 | 8.10e5 | 7.88e5 | 2.24e6 | 1.94e6 | inactive |
| CG10887 | DRSC27820 | 2.18e5 | 2.75e5 | 5.73e5 | 7.96e5 | inactive |
| drm | DRSC00277 | 75842 | 93061 | 6.78e5 | 9.92e5 | inactive |
| CG11247 | DRSC11643 | 3.68e5 | 3.37e5 | 2.16e6 | 2.57e6 | inactive |
| CG11247 | DRSC21901 | 7.09e5 | 7.69e5 | 1.06e6 | 1.09e6 | inactive |
| CG11247 | DRSC26558 | 4.64e5 | 5.31e5 | 7.72e5 | 6.63e5 | inactive |
